Values of other authors in US6890933B1, “Kinesin inhibitors” (President and Fellows of Harvard College, priority 2000, dated 2005).
Entries after “also recorded” stand apart in the source; their conditions may differ. For at least one compound, name, drawing or mass did not settle the structure.

Test system: monkey epithelial kidney cells (BS-C-1)
Settings: cited from earlier work

For `CCOC(=O)C1=C(C)NC(=S)NC1c1cccc(O)c1` (centres unmarked) [monastrol], the “effect on interphase cells (in words), literature” value (BS-C-1 cells) is listed as “not affected” and the “spindle phenotype in mitotic cells (in words), literature” value (Mayer et al. Science 286:971-974, 1999) is listed as “capable of arresting mammalian cells in mitosis with monopolar spindles; also recorded: monoastral microtubule array surrounded by a ring of chromosomes”.
